Assay results from PMC8306789.

B1: Polyadenylate-binding protein 4 (protein, UniProt O22173 1-662)
chain: MAQVQAPSSHSPPPPAVVNDGAATASATPGIGVGGGGDGVTHGALCSLYVGDLDFNVTDSQLYDYFTEVCQVVSVRVCRDAATNTSLGYGYVNYSNTDDAEKAMQKLNYSYLNGKMIRITYSSRDSSARRSGVGNLFVKNLDKSVDNKTLHEAFSGCGTIVSCKVATDHMGQSRGYGFVQFDTEDSAKNAIEKLNGKVLNDKQIFVGPFLRKEERESAADKMKFTNVYVKNLSEATTDDELKTTFGQYGSISSAVVMRDGDGKSRCFGFVNFENPEDAARAVEALNGKKFDDKEWYVGKAQKKSERELELSRRYEQGSSDGGNKFDGLNLYVKNLDDTVTDEKLRELFAEFGTITSCKVMRDPSGTSKGSGFVAFSAASEASRVLNEMNGKMVGGKPLYVALAQRKEERRAKLQAQFSQMRPAFIPGVGPRMPIFTGGAPGLGQQIFYGQGPPPIIPHQPGFGYQPQLVPGMRPAFFGGPMMQPGQQGPRPGGRRSGDGPMRHQHQQPMPYMQPQMMPRGRGYRYPSGGRNMPDGPMPGGMVPVAYDMNVMPYSQPMSAGQLATSLANATPAQQRTLLGESLYPLVDQIESEHAAKVTGMLLEMDQTEVLHLLESPEALNAKVSEALDVLRNVNQPSSQGSEGNKSGSPSDLLASLSINDHL
B2: Polyadenylate-binding protein 8 (protein, UniProt Q9FXA2 1-671)
chain: MAQIQHQGQNANGGVAVPGAAAAEAAAAAAGAAAAAAGAAQQGTTSLYVGDLDATVTDSQLFEAFTQAGQVVSVRVCRDMTTRRSLGYGYVNYATPQDASRALNELNFMALNGRAIRVMYSVRDPSLRKSGVGNIFIKNLDKSIDHKALHETFSAFGPILSCKVAVDPSGQSKGYGFVQYDTDEAAQGAIDKLNGMLLNDKQVYVGPFVHKLQRDPSGEKVKFTNVYVKNLSESLSDEELNKVFGEFGVTTSCVIMRDGEGKSKGFGFVNFENSDDAARAVDALNGKTFDDKEWFVGKAQKKSERETELKQKFEQSLKEAADKSQGSNLYVKNLDESVTDDKLREHFAPFGTITSCKVMRDPSGVSRGSGFVAFSTPEEATRAITEMNGKMIVTKPLYVALAQRKEDRKARLQAQFSQMRPVNMPPAVGPRMQMYPPGGPPMGQQLFYGQGPPAMIPQPGFGYQQQLVPGMRPGGSPMPNFFMPMMQQGQQQQQQQQQQQRPGGGRRGALPQPQQPSPMMQQQMHPRGRMYRYPQRDVNTMPGPTQNMLSVPYDVSSGGGVHHRDSPTSQPVPIVALATRLANAAPEQQRTMLGENLYPLVEQLEPESAAKVTGMLLEMDQTEVLHLLESPEALKAKVTEAMDVLRSVAQQQAGGAADQLASLSLGDNIVP
B3: Glycine rich RNA-binding protein GRP7 (protein, UniProt Q03250 1-176)
chain: MASGDVEYRCFVGGLAWATDDRALETAFAQYGDVIDSKIINDRETGRSRGFGFVTFKDEKAMKDAIEGMNGQDLDGRSITVNEAQSRGSGGGGGHRGGGGGGYRSGGGGGYSGGGGSYGGGGGRREGGGGYSGGGGGYSSRGGGGGSYGGGRREGGGGYGGGEGGGYGGSGGGGGW
B4: Mediator complex subunit MED36a (protein, UniProt Q94AH9 1-320)
chain: MRPPLTGSGGGFSGGRGRGGYSGGRGDGGFSGGRGGGGRGGGRGFSDRGGRGRGRGPPRGGARGGRGPAGRGGMKGGSKVIVEPHRHAGVFIAKGKEDALVTKNLVPGEAVYNEKRISVQNEDGTKTEYRVWNPFRSKLAAAILGGVDNIWIKPGAKVLYLGAASGTTVSHVSDLVGPEGCVYAVEFSHRSGRDLVNMAKKRTNVIPIIEDARHPAKYRMLVGMVDVIFSDVAQPDQARILALNASYFLKSGGHFVISIKANCIDSTVPAEAVFQTEVKKLQQEQFKPAEQVTLEPFERDHACVVGGYRMPKKPKAATAA
B5: Polyadenylate-binding protein 2 (protein, UniProt P42731 1-629)
chain: MAQVQLQGQTPNGSTAAVTSAPATSGGATATQFGNTSLYVGDLDFNVTDSQLFDAFGQMGTVVTVRVCRDLVTRRSLGYGYVNFTNPQDAARAIQELNYIPLYGKPIRVMYSHRDPSVRRSGAGNIFIKNLDESIDHKALHDTFSSFGNIVSCKVAVDSSGQSKGYGFVQYANEESAQKAIEKLNGMLLNDKQVYVGPFLRRQERDSTANKTKFTNVYVKNLAESTTDDDLKNAFGEYGKITSAVVMKDGEGKSKGFGFVNFENADDAARAVESLNGHKFDDKEWYVGRAQKKSERETELRVRYEQNLKEAADKFQSSNLYVKNLDPSISDEKLKEIFSPFGTVTSSKVMRDPNGTSKGSGFVAFATPEEATEAMSQLSGKMIESKPLYVAIAQRKEDRRVRLQAQFSQVRPVAMQPSVGPRMPVYPPGGPGIGQQMFYGQAPPAMIPPQPGYGYQQQLVPGMRPGGGPVPSFFMPMVQPQQQRPGGGRRPGGIQHSQQQNPMMQQQMHPRGRMFRYPQGRGGSGDVPPYDMGNNMPLTIGALASNLSNATPEQQRTMLGEVLYPLVEQVEAESAAKVTGMLLEMDQTEVLHLLESPEALKAKVAEAMDVLRSVAAGGATEQLASLNLS
B6: Decapping protein 5 (protein, UniProt Q9C658 1-611)
chain: MAADNTGSKSSSAADSYVGSLISLTSKSEIRYEGILYNINTDESSIGLQNVRSFGTEGRKKDGPQVPPSDKVYEYILFRGTDIKDLQVKASPPVQPPASTINNDPAIIQSHYPSPMPTSGSLPSTASGSLPDISSHNGQPGQHGMGFQNAMPLYQPGGNLGSWGASPQPPMYWQGFYTPPPNGLPQLHQQSLIRPPHGLPMPNSLQQPLQYPNFNTPPPPTGSSSLQGSSLPEAPSSLFPFSTSSQMLAPSSLPFPGLPPVTLSSSLQSTLQSAPSPSLASEMAPPLLSNKAPITAPPTLPQDTNLLSFSLSTTRATEASTGLPLSNKPSVVTGPISPPQTTPLTSAPVAGVSSSISQDKPKPLLVTPGQLLQSGSSAVSLSPPSTNADKDVEVVQVSSSAGLEQSVPVTSEAQPPILPLPSSARPTQKPNGHSFPNHNGYRGRGRGRGRGAGRSHQVMKFTEDFDFTAMNEKFNKDEVWGHLGKSTTLDGDEDDDSPTVDEAELPKIEAKPVYNKDDFFDSLSSNTIDRESQNSRPRFSEQRKLDTETFGEFSRFRGGRGGRGGYGRNNGYSRGGYGGRGYGGYGGRGGGGGGYGYGGRGQGRGVSNRTT
B7: THO complex protein 4B (protein, UniProt Q8L719 1-292)
chain: MSGGLDMSLDDIIKSNRKPTGSRGRGGIGGGNNTGGRGGSGSNSGPSRRFANRVGARTAPYSRPIQQQQAHDAMWQNDVFATDASVAAAFGHHQTAVVGGGSSIETGTKLYISNLDYGVSNEDIKELFSEVGDLKRYGIHYDRSGRSKGTAEVVFSRRGDALAAVKRYNNVQLDGKLMKIEIVGTNLSAPALPILATAQIPFPTNGILGNFNENFNGNFNGNFNGNFRGRGRGGFMGRPRGGGFGGGNFRGGRGARGRGGRGSGGRGRDENVSAEDLDAELDKYHKEAMETS
B8: DEAD-box ATP-dependent RNA helicase RH3 (protein, UniProt Q8L7S8 61-748)
chain: AVATPNSVLSEEAFKSLGLSDHDEYDLDGDNNNVEADDGEELAISKLSLPQRLEESLEKRGITHLFPIQRAVLVPALQGRDIIARAKTGTGKTLAFGIPIIKRLTEEAGDYTAFRRSGRLPKFLVLAPTRELAKQVEKEIKESAPYLSTVCVYGGVSYTIQQSALTRGVDVVVGTPGRIIDLIEGRSLKLGEVEYLVLDEADQMLAVGFEEAVESILENLPTKRQSMLFSATMPTWVKKLARKYLDNPLNIDLVGDQDEKLAEGIKLYAIATTSTSKRTILSDLITVYAKGGKTIVFTQTKRDADEVSLALSNSIATEALHGDISQHQRERTLNAFRQGKFTVLVATDVASRGLDIPNVDLVIHYELPNDPETFVHRSGRTGRAGKEGSAILMHTSSQKRTVRSLERDVGCHFEFISPPTVGDLLESSADQVVATLNGVHPDSIKFFSATAQKLYEEKGTDALAAALAHLSGFSQPPSSRSLLSHEKGWVTLQLIRDPTNARGFLSARSVTGFLSDLYRTAADEVGKIFLIADDRIQGAVFDLPEEIAKELLEKDVPEGNSLSMITKLPPLQDDGPSSDNYGRFSSRDRMPRGGGGSRGSRGGRGGSSRGRDSWGGDDDRGSRRSSGGGSSWSRGGSSSRGSSDDWLIGGRSSSSSRAPSRERSFGGSCFICGKSGHRATDCPDKRGF
B9: Glycine rich RNA-binding protein GRP8 (protein, UniProt Q03251 1-169)
chain: MSEVEYRCFVGGLAWATNDEDLQRTFSQFGDVIDSKIINDRESGRSRGFGFVTFKDEKAMRDAIEEMNGKELDGRVITVNEAQSRGSGGGGGGRGGSGGGYRSGGGGGYSGGGGGGYSGGGGGGYERRSGGYGSGGGGGGRGYGGGGRREGGGYGGGDGGSYGGGGGGW

Molecular target: HopA1pss-Myc (Pseudomonas syringae pv. syringae strain 61)
Experiment: affinity purification with mass spectrometry; anti-Myc antibody-conjugated agarose beads on total protein extracts of Dex+ Dex:HopA1pss-Myc eds1-2 Arabidopsis plants (12 hpin); IgG-conjugated beads as non-specific binding control; lysis buffer 10% glycerol, 25 mM Tris-HCl pH 7.5, 150 mM NaCl, 10 mM DTT; 3 h at 4 °C; trypsin digestion, LC-MS/MS

| Binder | binding |
| --- | --- |
| B1 | binds |
| B2 | binds |
| B3 | binds |
| B4 | binds |
| B5 | binds |
| B6 | binds |
| B7 | binds |
| B8 | binds |
| B9 | binds |

These are yes or no findings as the source states them, for the method shown. In cells and extracts the contact can be indirect. Here binding means that the protein was enriched with, or labelled near, the bait; the list need not be complete.
